Assay results taken from patent US20040152162A1.
Results are given in words; binding and its absence hold for the method and conditions named. Some entries that bind do so weakly or less than the wild type. For some assays here: Tags and fused reporters may be left off the sequences shown.

Chains of the proteins cited; added tags and fusions are not shown. Lines headed by an entry give the natural chain unless they say otherwise; changes in a name come on top.
UniProt O00571: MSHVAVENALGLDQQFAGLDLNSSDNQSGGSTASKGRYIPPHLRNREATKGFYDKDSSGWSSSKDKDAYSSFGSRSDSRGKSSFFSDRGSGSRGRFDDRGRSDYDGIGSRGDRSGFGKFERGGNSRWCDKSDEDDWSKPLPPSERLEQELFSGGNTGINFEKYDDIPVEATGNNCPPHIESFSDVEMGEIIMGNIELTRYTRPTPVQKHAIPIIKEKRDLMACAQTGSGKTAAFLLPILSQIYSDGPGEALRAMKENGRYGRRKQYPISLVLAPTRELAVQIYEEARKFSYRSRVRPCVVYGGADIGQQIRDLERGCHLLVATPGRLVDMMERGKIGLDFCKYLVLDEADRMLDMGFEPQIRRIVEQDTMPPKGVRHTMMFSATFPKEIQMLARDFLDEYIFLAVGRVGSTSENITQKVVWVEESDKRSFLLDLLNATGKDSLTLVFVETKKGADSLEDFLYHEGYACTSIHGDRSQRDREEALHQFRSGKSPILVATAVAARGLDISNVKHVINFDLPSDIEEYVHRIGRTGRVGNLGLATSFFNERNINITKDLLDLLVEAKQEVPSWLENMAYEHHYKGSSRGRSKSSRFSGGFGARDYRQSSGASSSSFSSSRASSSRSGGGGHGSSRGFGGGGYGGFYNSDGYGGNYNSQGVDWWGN

Columns and labels:
[1] = molecular target: human topoisomerase IIIα fused with the DNA-binding domain of GAL4 (plasmid pGBT-TopoIIIα) (human) (UniProt P04386+Q13472); assay: yeast two-hybrid, GAL4 DB-topoisomerase IIIα bait, strain yCM17, β-Gal activity test
[2] = molecular target: T1, human topoisomerase IIIα fused with the LexA protein (plasmid pLex-TopoIIIα) (human) (UniProt Q13472); assay: yeast two-hybrid screen of a HeLa cDNA library, LexA-topoisomerase IIIα bait, strain L40, His3 and LacZ reporters
T1 sequence (looked up): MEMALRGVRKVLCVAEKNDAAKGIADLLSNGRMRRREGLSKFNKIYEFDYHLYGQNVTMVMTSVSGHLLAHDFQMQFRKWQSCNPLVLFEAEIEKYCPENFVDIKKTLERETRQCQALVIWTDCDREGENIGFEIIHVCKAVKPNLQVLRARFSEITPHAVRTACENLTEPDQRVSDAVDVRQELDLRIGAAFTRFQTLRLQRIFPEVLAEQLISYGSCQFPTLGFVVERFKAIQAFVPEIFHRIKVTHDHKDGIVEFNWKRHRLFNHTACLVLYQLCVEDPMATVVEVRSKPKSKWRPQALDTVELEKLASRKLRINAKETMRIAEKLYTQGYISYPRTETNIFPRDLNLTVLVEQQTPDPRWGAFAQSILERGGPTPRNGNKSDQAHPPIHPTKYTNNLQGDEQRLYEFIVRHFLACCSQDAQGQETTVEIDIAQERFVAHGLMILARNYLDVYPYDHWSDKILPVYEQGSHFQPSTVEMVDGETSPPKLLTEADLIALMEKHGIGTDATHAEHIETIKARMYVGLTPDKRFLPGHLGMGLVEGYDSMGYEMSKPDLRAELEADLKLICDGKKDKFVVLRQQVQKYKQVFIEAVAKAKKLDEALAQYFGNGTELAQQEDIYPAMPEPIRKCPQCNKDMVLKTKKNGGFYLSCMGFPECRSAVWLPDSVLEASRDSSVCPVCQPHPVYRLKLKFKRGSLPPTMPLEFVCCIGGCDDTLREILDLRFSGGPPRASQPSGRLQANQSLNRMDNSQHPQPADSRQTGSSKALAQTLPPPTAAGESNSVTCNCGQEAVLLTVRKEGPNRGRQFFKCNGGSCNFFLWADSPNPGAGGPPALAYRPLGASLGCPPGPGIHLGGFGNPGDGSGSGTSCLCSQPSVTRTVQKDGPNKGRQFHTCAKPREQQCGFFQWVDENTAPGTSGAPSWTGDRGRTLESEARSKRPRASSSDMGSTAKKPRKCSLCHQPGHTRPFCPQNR

binding [1]: binds
binding [2]: binds
Substance: polypeptide encoded by the plasmid isolated during the screening of the Hela cell two-hybrid cDNA library (cloned fragment SEQ ID No. 3 encoding SEQ ID No. 4), fused with the transactivating domain of GAL4 (vector pGAD GH) (from UniProt O00571 318-662)
